Out of some 300,000 compounds screened, about 5,400 (1.8%) were called active. The inconclusive results got no clear call from the source; some entries with a clear call stand among them for comparison. Calls follow the shape of the full dose curve; tested in HEK293 cells. Potencies of inconclusive entries are doubtful fits and often do not repeat.
Assay: qHTS for inhibitors of binding or entry into cells for Marburg Virus
Conditions: Marburg virus pseudotyped entry inhibition, cell reporter; activity change, negative = inhibition: at 37.8 µM (top of the series) unless noted
% is scaled to controls: 0 for no effect and ±100 for the full control effect; potency is read from the fitted curve at half-maximal effect.

Compound	activity change, negative = inhibition	Potency
CC1CCCCN1CCCNC(=O)Cn1ncc2c3ccccc3n(C)c2c1=O (stereo not given)	inactive: -12.7% [at 46.1 µM]	
COc1ccc(S(=O)(=O)N2CC3CCCN3c3cc(C(F)(F)F)ccc32)cc1 (stereo not given)		inconclusive: 7.3 µM [inhibitor, partial curve, poor fit]
c1ccc(-c2ccc(OCCCn3cncn3)cc2)cc1		inconclusive: 5.62 µM [inhibitor, single point]
COc1cccc(CN(C)C(=O)c2cc(-c3ccc(OC)c(OC)c3)nc3ccccc23)c1		inconclusive: 35.5 µM [inhibitor, single point]
CSCCC(NC(=O)c1ccccc1)C(=O)N1CCN(C(C)=O)CC1 (stereo not given)		inconclusive: 1.26 µM [activator, single point]
Cc1ccc(S(=O)(=O)N2CCOCC2)cc1NC(=O)C(c1ccc(Cl)cc1)C(C)C (stereo not given)		inconclusive: 10 µM [inhibitor, partial curve]
CCN(CC)S(=O)(=O)c1ccc(-c2nnc(SCC(=O)N3CCc4ccccc43)o2)cc1		inconclusive: 0.184 µM [inhibitor, full curve, poor fit]
COc1ccc(C(=O)N=c2sc3ccccc3n2C)cc1		inconclusive: 35.5 µM [inhibitor, single point]
CC(=O)N1CCN(C(=O)c2ccc3c(c2)S(=O)(=O)c2ccccc2C3=O)CC1	inactive: 0.647% [at 46.1 µM]	
O=C(CSc1nnc(-c2cccnc2)n1Cc1ccco1)N1c2ccccc2Sc2ccccc21		inconclusive: 20.6 µM [inhibitor, single point]
COc1cc(C2C(S(=O)(=O)c3ccccc3)CON2C)ccc1OCc1ccc(F)cc1 (stereo not given)		inconclusive: 0.501 µM [activator, partial curve, poor fit]
CCN(CC)c1ccc(Nc2nc(-c3cccnc3)cs2)cc1		inconclusive: 5.01 µM [inhibitor, partial curve, poor fit]
Cc1ccccc1NC(=O)c1cnc2ccccn2c1=O		inconclusive: 0.092 µM [activator, partial curve, poor fit]
COc1ccc(Nc2ncc(C#N)c(N)n2)c(OC)c1		inactive
CC1CCCN(C(=O)COC(=O)c2ccc3[nH]c4c(c3c2)CCCC4)C1 (stereo not given)		inconclusive: 35.5 µM [inhibitor, single point]
CCOC(=O)c1c(C)n(C)c2ccc(O)c(CN3CCN(C)CC3)c12	inactive: -25.4%	
COc1ccc(-n2nc(C(=O)NCC(=O)NCCCN3CCCCCC3)c3ccccc3c2=O)cc1Cl		inconclusive: 14.1 µM [inhibitor, partial curve, poor fit]
COc1cc(OC)cc(Oc2ccc(S(=O)(=O)N3CCCCC3)cc2[N+](=O)[O-])c1		inconclusive: 7.3 µM [inhibitor, partial curve]
COc1ccc(C(=O)c2cnc[nH]2)cc1	inactive: 1.1% [at 46.1 µM]	
Cc1cccc(-c2nc(CN3CCCC(C(=O)NC4CCCCC4)C3)c(C)o2)c1 (stereo not given)		inconclusive: 16.4 µM [inhibitor, partial curve]
Cc1ccc(S(=O)(=O)N2CCC(C(=O)NC3CCCC3)CC2)cc1Cl		inconclusive: 12.6 µM [inhibitor, single point]
CCOC(=O)c1c(/N=C/N(C)C)sc(/C=N/Nc2ccccc2)c1-c1ccccc1		active: 18.3 µM

Compound	activity change, negative = inhibition	Potency
Cc1ccc(-c2cc(C(=O)N3CCN(c4ncccn4)CC3)c3cc(Br)ccc3n2)o1		inconclusive: 2 µM [inhibitor, single point]
CC(=O)Oc1ccc(CC(C(=O)O)N2C(=O)c3ccccc3C2=O)cc1 (stereo not given)	inactive: 9.89% [at 46.1 µM]	
CC1=NN(CCC#N)C(=O)/C1=C/c1ccc(N(C)C)cc1		inconclusive: 3.16 µM [activator, partial curve, poor fit]
COCc1cc(=O)n2[nH]c(C)c(-c3ccccc3)c2n1		inconclusive: 0.0891 µM [inhibitor, full curve, poor fit]
COC(=O)c1cn(C(=O)c2cccs2)c2ccccc12		inconclusive: 15.8 µM [activator, partial curve, poor fit]
C=CCC1(CC=C)CCCN1C(=O)C1CCC(=O)N(CCc2ccccc2)C1 (stereo not given)		inconclusive: 35.5 µM [inhibitor, single point]
O=C(O)CCC(=O)Nc1ccccc1C(=O)NC1CCCCC1	inactive: 0%	
Cc1ccc(-c2nn3c(C)nnc3s2)cc1NC(=O)c1cccs1	inactive: 24.3%	
CCN(c1ccccc1)S(=O)(=O)c1ccc(NC(=O)c2nc(SC(C)C)ncc2Cl)cc1		inconclusive: 7.08 µM [inhibitor, full curve, poor fit]
CCOC(=O)Nc1sc2c(c1C#N)CCCC2		inconclusive: 3.16 µM [activator, partial curve, poor fit]
CC(=NCc1ccc(F)cc1)c1c(O)n(C)c(=O)n(C)c1=O		active: 0.326 µM
O=C(Cc1ccc(Cl)cc1)Nc1ccc(CN2CCCCC2)cc1		inconclusive: 17.8 µM [inhibitor, single point]
Cc1ccccc1OCCNC(=O)CSc1ccc(C(F)(F)F)cc1[N+](=O)[O-]		inconclusive: 6.31 µM [activator, single point]
Cc1cc(NC(=O)COC(=O)C(Nc2ccc(C(F)(F)F)cc2Cl)C(C)C)no1 (stereo not given)		inconclusive: 29.1 µM [inhibitor, single point]
COc1ccc(CN(C(=O)CN2C(=O)c3ccccc3S2(=O)=O)C(C(=O)NCC2CCCO2)c2ccco2)cc1 (stereo not given)		inconclusive: 15.8 µM [activator, single point]
Cc1ccc(CN2CCCN(C)CC2)c(C)c1		inconclusive: 35.5 µM [inhibitor, single point]
CCOC(=O)C1CCN(C(=O)c2cc(OCC)c(OCC)c(OCC)c2)CC1	inactive: -3.82%	
CC(C)OC(=O)CC12CN(C)CC(CC(=O)OC(C)C)(CN(C)C1)C2=O		inconclusive: 35.5 µM [activator, partial curve, poor fit]
COC(=O)c1c(C)oc2ccc(N(C(=O)Oc3ccccc3)S(=O)(=O)c3ccccc3)cc12		inconclusive: 10 µM [inhibitor, partial curve, poor fit]
Cc1ccc(C(C)C)c(OCCCCCN2CCOCC2)c1		inconclusive: 7.94 µM [inhibitor, partial curve, poor fit]
CCn1cc(C(=O)Nc2ccc(NC(=O)c3ccco3)cc2)c(=O)c2ccc(C)nc21		inconclusive: 0.092 µM [activator, partial curve, poor fit]
CN1CCN(CC#CCC(O)(c2ccccc2)C2CCCC2)CC1 (stereo not given)		inactive

Single values from the results shown.
CCOC(=O)C1CCN(C(=O)c2cc(OCC)c(OCC)c(OCC)c2)CC1 | activity change, negative = inhibition: inactive: -3.82%
Cc1ccc(-c2nn3c(C)nnc3s2)cc1NC(=O)c1cccs1 | activity change, negative = inhibition: inactive: 24.3%
CCN(c1ccccc1)S(=O)(=O)c1ccc(NC(=O)c2nc(SC(C)C)ncc2Cl)cc1 | Potency: inconclusive: 7.08 µM [inhibitor, full curve, poor fit]

The listing continues:

Compound	activity change, negative = inhibition	Potency
CC(C)Oc1ccc(C2C(C#N)=C(N)Oc3c2oc(CO)cc3=O)cc1 (stereo not given)		inconclusive: 1.26 µM [inhibitor, single point]
O=C(Nc1cccc(S(=O)(=O)N2CCCCC2)c1)c1ccc(S(=O)(=O)C(F)F)cc1		active: 4.47 µM
Cc1ccc(CNC(=O)CCCn2c(=O)c3ccccc3n(CC(=O)Nc3ccc(C)c(C)c3)c2=O)cc1	inactive: -0.22% [at 46.1 µM]	
CCCCCN=C(C)c1c(O)c2ccccc2oc1=O	inconclusive: 12.3% [activator]	
COc1ccc(NC(=O)CSc2ccc3nnc(-c4ccccn4)n3n2)c(OC)c1		inconclusive: 5.62 µM [activator, single point]
COc1ccc(CNC(=O)/C=C/C(=O)O)cc1OC	inactive: 15.2%	
O=C(NCCN1CCOCC1)c1cc2sccc2n1Cc1ccc(F)cc1		inconclusive: 29.1 µM [inhibitor, single point]
Cc1cc(C)n2cc(CSc3nncn3C)nc2n1		inconclusive: 1.58 µM [inhibitor, partial curve, poor fit]
c1ccc(CCc2nn3c(Cc4ccccc4)nnc3s2)cc1	inactive: 10.3%	
O=C(COCC(=O)N/N=C/c1ccccc1F)N/N=C/c1ccccc1F		inconclusive: 6.31 µM [inhibitor, single point]
CC(=O)Nc1ccc(-c2nc3c(C)cccc3[nH]2)cc1		inconclusive: 1.3 µM [activator, partial curve, poor fit]
CC1CCN(S(=O)(=O)c2cccc(C(=O)N3CCN(c4ccc(F)cc4)CC3)c2)CC1		inconclusive: 35.5 µM [inhibitor, single point]
O=C1CC(/C=C/c2ccncc2)=Nc2ccccc2N1		inconclusive: 1.26 µM [inhibitor, full curve, poor fit]
COc1cccc(CN(C)C(=O)c2cc(-c3ccc(F)cc3)nc3ccccc23)c1		inconclusive: 15.8 µM [inhibitor, single point]
Brc1ccc2ncnc(NCc3ccccc3)c2c1		inconclusive: 35.5 µM [inhibitor, single point]
Cc1cc(C)c(C(=O)c2ccc(C(=O)NC(C)(C)C)cc2)c(C)c1	inactive: -16.5%	
COc1ccc(C(=O)N/C(=C/c2ccc(Cl)cc2)C(=O)NCc2ccncc2)cc1		inconclusive: 2.51 µM [activator, partial curve, poor fit]
Cc1ccc(-n2c(=O)c3c(C)c(C)sc3n(CC(=O)NCc3ccccc3)c2=O)cc1C	inactive: -0.0689% [at 46.1 µM]	
CC1CCc2c(sc(NC(=O)C3c4ccccc4Oc4ccccc43)c2C#N)C1 (stereo not given)		inconclusive: 20 µM [inhibitor, partial curve, poor fit]
CCn1c2ccccc2c2cc(/C=N/NC(=O)c3cccc(C)c3)ccc21		inconclusive: 2.59 µM [inhibitor, full curve, poor fit]
Cn1c(=O)c2[nH]c(CCCCCCCc3nc4ccccc4[nH]3)nc2n(C)c1=O		inconclusive: 35.5 µM [inhibitor, single point]

Reference: PubChem BioAssay AID540276 (National Center for Advancing Translational Sciences (NCATS), 2011)
